# From the supplement of paper PMC6411743
# The chains behind the UniProt entries cited, without tags or fusion partners. Where a name states a change or a piece, a line headed by the entry shows the natural chain unless it says otherwise.
# UniProt P15260: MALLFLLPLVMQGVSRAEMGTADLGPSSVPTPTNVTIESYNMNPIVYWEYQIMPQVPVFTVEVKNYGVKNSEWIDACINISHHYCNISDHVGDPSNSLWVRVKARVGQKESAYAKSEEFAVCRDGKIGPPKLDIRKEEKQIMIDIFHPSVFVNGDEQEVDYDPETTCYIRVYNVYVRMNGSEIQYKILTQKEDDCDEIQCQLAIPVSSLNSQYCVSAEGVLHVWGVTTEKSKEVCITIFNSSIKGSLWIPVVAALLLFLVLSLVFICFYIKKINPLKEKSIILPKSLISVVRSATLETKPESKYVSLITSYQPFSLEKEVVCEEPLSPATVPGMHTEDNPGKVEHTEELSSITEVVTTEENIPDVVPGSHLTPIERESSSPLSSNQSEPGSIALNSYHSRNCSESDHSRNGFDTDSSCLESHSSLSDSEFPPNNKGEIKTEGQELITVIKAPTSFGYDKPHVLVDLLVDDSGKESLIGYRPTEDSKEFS
# UniProt P05455: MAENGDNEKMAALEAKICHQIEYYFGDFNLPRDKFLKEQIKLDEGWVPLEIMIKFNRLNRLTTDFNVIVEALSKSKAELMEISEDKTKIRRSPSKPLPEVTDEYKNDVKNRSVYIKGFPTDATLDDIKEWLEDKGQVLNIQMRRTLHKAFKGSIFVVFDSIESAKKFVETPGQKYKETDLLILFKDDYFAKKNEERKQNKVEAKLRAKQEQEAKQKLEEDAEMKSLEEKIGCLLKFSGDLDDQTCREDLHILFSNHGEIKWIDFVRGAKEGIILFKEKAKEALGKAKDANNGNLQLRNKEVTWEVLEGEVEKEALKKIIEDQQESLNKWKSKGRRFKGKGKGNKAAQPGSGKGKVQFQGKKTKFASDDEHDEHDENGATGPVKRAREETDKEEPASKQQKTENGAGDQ
# UniProt P11586, whole entry: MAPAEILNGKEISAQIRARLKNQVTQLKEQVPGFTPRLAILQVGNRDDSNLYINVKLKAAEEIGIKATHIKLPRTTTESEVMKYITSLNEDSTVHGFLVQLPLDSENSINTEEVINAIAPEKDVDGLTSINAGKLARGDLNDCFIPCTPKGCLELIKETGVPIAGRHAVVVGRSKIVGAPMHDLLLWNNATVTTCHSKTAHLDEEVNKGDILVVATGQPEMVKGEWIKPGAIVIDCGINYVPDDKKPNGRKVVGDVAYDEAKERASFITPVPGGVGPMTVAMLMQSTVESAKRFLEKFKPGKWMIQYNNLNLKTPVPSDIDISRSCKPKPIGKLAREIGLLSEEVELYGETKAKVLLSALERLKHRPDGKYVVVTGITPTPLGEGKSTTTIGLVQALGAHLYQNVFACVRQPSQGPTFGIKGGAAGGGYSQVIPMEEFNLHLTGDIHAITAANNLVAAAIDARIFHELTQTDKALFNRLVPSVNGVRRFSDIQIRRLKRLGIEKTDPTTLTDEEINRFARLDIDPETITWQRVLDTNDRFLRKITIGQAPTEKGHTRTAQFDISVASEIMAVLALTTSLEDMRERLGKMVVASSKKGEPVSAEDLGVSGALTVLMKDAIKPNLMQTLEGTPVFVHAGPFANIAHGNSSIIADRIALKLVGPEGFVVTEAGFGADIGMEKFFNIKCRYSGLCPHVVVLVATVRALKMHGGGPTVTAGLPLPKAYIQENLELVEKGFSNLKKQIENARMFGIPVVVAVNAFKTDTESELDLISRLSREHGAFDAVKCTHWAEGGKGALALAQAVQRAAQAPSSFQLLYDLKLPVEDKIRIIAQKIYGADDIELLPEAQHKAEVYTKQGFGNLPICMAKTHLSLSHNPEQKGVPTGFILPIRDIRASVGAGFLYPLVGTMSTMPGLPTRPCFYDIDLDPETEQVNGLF
# UniProt P09429: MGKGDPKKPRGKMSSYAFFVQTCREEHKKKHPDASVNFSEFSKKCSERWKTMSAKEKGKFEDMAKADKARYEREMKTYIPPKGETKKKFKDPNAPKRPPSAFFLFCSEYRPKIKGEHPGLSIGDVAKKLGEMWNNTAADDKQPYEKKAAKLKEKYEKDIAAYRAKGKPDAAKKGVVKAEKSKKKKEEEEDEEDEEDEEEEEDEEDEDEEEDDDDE
# UniProt P07919: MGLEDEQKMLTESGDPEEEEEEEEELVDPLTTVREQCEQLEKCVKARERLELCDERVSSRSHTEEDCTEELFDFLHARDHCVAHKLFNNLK
# UniProt P02794, whole entry: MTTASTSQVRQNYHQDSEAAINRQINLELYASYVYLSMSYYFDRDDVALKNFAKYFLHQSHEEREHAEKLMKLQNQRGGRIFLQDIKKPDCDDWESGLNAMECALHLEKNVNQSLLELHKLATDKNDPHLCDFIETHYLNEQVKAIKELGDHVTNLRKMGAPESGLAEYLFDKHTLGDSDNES
# UniProt P06241, whole entry, looked up: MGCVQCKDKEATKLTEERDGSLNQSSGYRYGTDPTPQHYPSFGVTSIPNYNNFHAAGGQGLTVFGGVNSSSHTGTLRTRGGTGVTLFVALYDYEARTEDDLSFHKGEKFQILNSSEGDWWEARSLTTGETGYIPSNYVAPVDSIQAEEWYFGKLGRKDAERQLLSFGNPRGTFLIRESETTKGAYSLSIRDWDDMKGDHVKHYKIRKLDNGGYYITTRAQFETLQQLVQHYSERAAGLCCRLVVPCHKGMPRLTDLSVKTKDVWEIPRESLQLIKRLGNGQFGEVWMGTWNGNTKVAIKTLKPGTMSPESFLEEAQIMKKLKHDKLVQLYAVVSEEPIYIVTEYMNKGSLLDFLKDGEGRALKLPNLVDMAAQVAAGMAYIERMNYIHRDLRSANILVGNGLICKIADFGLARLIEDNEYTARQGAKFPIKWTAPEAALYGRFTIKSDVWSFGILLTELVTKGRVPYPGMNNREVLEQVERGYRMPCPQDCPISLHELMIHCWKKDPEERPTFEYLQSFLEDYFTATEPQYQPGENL
# UniProt P13073, whole entry: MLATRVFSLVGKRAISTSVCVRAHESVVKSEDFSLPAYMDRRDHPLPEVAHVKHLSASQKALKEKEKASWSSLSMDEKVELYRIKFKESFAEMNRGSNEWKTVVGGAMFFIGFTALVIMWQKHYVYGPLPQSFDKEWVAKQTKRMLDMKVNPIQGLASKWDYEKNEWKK
# UniProt O96007: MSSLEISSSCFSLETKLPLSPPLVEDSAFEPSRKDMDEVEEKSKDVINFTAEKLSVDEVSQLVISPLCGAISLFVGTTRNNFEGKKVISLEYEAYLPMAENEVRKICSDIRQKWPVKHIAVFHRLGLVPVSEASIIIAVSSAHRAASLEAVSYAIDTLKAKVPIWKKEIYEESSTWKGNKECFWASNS
# UniProt O96033: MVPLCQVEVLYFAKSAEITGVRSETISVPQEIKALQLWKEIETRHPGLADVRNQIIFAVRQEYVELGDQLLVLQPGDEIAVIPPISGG
# UniProt P13612, whole entry: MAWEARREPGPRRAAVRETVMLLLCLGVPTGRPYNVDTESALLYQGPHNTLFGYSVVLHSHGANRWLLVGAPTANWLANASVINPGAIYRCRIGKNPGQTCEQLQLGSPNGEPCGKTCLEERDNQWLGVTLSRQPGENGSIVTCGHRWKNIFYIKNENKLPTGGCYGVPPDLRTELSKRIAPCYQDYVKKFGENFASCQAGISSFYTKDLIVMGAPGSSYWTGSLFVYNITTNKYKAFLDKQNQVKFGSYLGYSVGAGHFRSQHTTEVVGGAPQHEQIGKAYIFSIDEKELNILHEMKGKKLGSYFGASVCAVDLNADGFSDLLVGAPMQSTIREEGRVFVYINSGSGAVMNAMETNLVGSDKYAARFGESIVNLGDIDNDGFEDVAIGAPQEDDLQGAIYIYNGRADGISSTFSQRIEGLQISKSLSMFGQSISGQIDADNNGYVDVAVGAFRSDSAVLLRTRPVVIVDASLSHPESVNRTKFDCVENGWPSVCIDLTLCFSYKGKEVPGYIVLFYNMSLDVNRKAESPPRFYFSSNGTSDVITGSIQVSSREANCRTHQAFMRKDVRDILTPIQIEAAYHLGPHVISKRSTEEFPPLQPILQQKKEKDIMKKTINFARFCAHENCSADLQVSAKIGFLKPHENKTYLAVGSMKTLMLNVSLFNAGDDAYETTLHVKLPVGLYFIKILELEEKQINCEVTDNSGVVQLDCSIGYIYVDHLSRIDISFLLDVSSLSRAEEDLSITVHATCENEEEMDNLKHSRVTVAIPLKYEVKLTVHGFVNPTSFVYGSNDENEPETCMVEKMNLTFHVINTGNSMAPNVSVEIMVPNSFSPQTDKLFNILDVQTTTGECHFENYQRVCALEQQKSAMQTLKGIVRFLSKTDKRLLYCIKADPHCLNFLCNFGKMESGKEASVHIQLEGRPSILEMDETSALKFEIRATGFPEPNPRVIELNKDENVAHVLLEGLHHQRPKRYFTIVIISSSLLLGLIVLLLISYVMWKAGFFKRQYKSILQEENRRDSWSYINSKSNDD
# UniProt P00505: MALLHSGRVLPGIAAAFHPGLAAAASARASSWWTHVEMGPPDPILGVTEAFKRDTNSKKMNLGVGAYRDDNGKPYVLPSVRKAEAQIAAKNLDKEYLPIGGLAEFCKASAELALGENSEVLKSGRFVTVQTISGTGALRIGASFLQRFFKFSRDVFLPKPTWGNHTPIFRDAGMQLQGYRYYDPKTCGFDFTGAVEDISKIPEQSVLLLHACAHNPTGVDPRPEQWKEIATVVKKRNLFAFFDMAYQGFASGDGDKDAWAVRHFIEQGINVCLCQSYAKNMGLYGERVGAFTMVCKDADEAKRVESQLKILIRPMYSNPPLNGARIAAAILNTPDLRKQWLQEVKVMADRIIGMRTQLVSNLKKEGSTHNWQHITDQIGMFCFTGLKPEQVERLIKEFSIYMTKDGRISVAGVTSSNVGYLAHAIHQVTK
# UniProt P07355, whole entry: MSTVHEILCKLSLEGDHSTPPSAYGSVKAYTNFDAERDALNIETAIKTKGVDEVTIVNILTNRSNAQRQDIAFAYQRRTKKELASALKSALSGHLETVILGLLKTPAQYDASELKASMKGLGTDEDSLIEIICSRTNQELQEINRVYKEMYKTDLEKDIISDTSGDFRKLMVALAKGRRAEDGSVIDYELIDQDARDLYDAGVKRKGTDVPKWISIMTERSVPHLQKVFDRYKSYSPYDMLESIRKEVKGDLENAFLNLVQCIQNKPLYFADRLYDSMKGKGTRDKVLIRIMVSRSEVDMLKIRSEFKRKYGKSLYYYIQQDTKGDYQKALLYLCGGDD
# UniProt P15812: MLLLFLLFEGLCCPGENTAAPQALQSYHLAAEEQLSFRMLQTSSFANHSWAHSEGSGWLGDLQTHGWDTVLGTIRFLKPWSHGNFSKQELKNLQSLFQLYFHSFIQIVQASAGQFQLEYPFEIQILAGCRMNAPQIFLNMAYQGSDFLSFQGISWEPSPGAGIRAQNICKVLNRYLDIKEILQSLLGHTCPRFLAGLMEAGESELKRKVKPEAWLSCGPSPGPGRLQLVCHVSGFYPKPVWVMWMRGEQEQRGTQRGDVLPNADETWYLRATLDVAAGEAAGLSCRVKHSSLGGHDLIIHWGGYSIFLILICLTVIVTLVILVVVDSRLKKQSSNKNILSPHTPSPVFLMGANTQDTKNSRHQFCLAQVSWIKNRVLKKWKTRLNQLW
# UniProt P14927: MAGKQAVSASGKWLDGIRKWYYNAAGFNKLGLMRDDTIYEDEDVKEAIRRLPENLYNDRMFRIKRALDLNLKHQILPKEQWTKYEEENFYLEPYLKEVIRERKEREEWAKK
# UniProt P16402, whole entry: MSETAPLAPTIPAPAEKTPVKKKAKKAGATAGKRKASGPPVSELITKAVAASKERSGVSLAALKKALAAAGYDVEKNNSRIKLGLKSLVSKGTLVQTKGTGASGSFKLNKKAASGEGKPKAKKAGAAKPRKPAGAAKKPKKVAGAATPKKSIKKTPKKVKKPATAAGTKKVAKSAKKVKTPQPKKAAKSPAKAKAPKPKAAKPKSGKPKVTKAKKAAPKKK
# UniProt P12004, whole entry: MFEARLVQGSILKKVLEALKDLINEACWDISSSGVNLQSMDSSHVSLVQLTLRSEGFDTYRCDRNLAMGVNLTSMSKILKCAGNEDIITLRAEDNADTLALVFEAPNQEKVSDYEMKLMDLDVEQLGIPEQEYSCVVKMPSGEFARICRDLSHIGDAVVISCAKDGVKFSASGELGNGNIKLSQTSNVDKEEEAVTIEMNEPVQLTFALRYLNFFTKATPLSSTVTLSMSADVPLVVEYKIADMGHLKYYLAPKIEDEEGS
# UniProt P07099: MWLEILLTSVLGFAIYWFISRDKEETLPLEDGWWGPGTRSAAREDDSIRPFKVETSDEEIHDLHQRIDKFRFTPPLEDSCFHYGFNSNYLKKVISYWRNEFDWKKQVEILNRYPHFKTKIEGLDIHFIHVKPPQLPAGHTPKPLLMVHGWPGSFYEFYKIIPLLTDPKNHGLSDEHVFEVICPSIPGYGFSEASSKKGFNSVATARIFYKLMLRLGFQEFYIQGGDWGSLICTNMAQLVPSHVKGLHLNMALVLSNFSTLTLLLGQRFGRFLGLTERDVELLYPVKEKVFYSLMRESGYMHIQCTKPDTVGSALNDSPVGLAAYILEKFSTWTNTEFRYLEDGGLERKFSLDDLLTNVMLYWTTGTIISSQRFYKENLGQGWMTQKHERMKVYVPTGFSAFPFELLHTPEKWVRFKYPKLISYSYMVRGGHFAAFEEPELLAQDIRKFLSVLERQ
# ± gives the standard deviation of the averaged measurements. Only a part is listed here, and it is no random draw.
# Compound: Nc1ncnc2c1ncn2[C@@H]1O[C@H](COP(=O)(O)OP(=O)(O)OP(=O)(O)O)[C@@H](O)[C@H]1O [adenosine triphosphate]
# Experiment: NP40-soluble protein abundance relative to vehicle (solubility fold change) (ratio); higher = more soluble protein in presence of ATP
# Outline: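 Each value is a fold change relative to the detergent-processed vehicle, calculated per replicate from vsn-normalised intensities. Jurkat crude lysate received eight concentrations (0.1 to 10 mM) for 10 min at room temperature and 3 min at 37 °C, then was solubilised in 0.8% NP40 with benzonase (60 min, 4 °C). The ultracentrifuged supernatant was TMT-labelled and run by LC-MS/MS in three independent experiments.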
Target,NP40-soluble protein abundance (concentration: 1mM),NP40-soluble protein abundance (concentration: 2mM),NP40-soluble protein abundance (concentration: 4mM),NP40-soluble protein abundance (concentration: 6mM),NP40-soluble protein abundance (concentration: 8mM),NP40-soluble protein abundance (concentration: 10mM)
UniProt P11908 and related entries,1.04 ± 0.097,0.947 ± 0.072,0.923 ± 0.056,0.874 ± 0.059,0.971 ± 0.019,0.937 ± 0.094
BAG3 (UniProt O95817),0.95 ± 0.18,0.922 ± 0.18,0.89 ± 0.17,0.905 ± 0.17,0.873 ± 0.12,0.806 ± 0.2
IFNGR1 (UniProt P15260),0.97 ± 0.038,0.9578 ± 0.0042,0.938 ± 0.079,1.01 ± 0.029,0.95 ± 0.047,0.905 ± 0.043
SSB (UniProt P05455),0.88 ± 0.067,0.9378 ± 0.0091,0.881 ± 0.031,0.939 ± 0.089,0.887 ± 0.036,0.883 ± 0.066
MTHFD1 (UniProt P11586),1 ± 0.025,0.977 ± 0.029,0.957 ± 0.03,0.978 ± 0.058,0.989 ± 0.04,0.961 ± 0.038
HMGB1 (UniProt P09429),0.993 ± 0.12,0.959 ± 0.062,1.02 ± 0.045,1.12 ± 0.076,1.07 ± 0.02,0.89 ± 0.2
UQCRH (UniProt P07919),0.97 ± 0.12,0.93 ± 0.1,0.801 ± 0.06,0.66 ± 0.29,0.515 ± 0.018,0.471 ± 0.15
FTH1 (UniProt P02794),1.01 ± 0.17,0.965 ± 0.14,0.955 ± 0.11,1.01 ± 0.22,0.985 ± 0.11,0.916 ± 0.17
UniProt P06241 and related entries,1.17 ± 0.082,1.14 ± 0.011,1.16 ± 0.039,1.08 ± 0.022,1.09 ± 0.025,1.11 ± 0.013
HEXB (UniProt P07686),0.963 ± 0.031,0.981 ± 0.033,0.958 ± 0.039,0.946 ± 0.041,0.938 ± 0.056,0.944 ± 0.028
COX4I1 (UniProt P13073),0.972 ± 0.04,0.955 ± 0.021,0.93 ± 0.011,0.95 ± 0.017,0.935 ± 0.027,0.891 ± 0.06
SP1 (UniProt P08047),0.946 ± 0.045,0.969 ± 0.016,0.976 ± 0.046,1.01 ± 0.041,0.946 ± 0.034,0.947 ± 0.031
CYB5A (UniProt P00167),0.911 ± 0.012,0.899 ± 0.021,0.885 ± 0.017,0.8916 ± 0.0088,0.871 ± 0.031,0.839 ± 0.076
NCK1 (UniProt P16333),0.975 ± 0.044,0.986 ± 0.053,0.991 ± 0.03,0.972 ± 0.053,0.964 ± 0.054,0.958 ± 0.042
O96007 and related entries (UniProt O96033+O96007),0.941 ± 0.035,0.977 ± 0.037,0.933 ± 0.011,0.949 ± 0.023,0.914 ± 0.036,0.9135 ± 0.0052
ITGA4 (UniProt P13612),0.935 ± 0.021,0.952 ± 0.016,0.925 ± 0.025,0.935 ± 0.025,0.902 ± 0.027,0.91 ± 0.0094
GOT2 (UniProt P00505),0.955 ± 0.11,0.945 ± 0.1,0.923 ± 0.049,0.906 ± 0.11,0.926 ± 0.05,0.927 ± 0.085
UniProt P07355 and related entries,0.9813 ± 0.007,0.994 ± 0.022,0.967 ± 0.025,0.988 ± 0.048,0.959 ± 0.027,0.923 ± 0.048
UniProt P15812 and related entries,0.901 ± 0.061,0.983 ± 0.12,0.931 ± 0.14,0.875 ± 0.066,0.885 ± 0.13,0.933 ± 0.11
UQCRB (UniProt P14927),0.953 ± 0.087,0.934 ± 0.05,0.913 ± 0.049,0.955 ± 0.072,0.908 ± 0.019,0.836 ± 0.063
UniProt P15882 and related entries,1.04 ± 0.025,1.027 ± 0.0095,0.99 ± 0.045,0.967 ± 0.022,1.041 ± 0.0092,1.02 ± 0.06
HIST1H1D (UniProt P16402),1.07 ± 0.18,1.02 ± 0.048,1.1 ± 0.074,1.17 ± 0.083,1.22 ± 0.099,1.4 ± 0.19
DLD (UniProt P09622),1.04 ± 0.019,1.03 ± 0.052,1.01 ± 0.066,1.01 ± 0.057,1.03 ± 0.071,1.01 ± 0.093
PCNA (UniProt P12004),0.979 ± 0.018,0.95 ± 0.024,0.918 ± 0.011,0.969 ± 0.026,0.936 ± 0.022,0.923 ± 0.037
EPHX1 (UniProt P07099),1.05 ± 0.18,1.03 ± 0.14,1.04 ± 0.15,0.948 ± 0.2,1.07 ± 0.12,1.01 ± 0.12
BPGM (UniProt P07738),1 ± 0.046,0.976 ± 0.052,0.998 ± 0.07,0.967 ± 0.031,0.943 ± 0.031,0.952 ± 0.073

# Quoted from the listing.
# Entry of UniProt P15812 and related entries under NP40-soluble protein abundance (concentration: 4mM): 0.931 ± 0.14
# Entry of MTHFD1 (UniProt P11586) under NP40-soluble protein abundance (concentration: 2mM): 0.977 ± 0.029
